Test results taken from the supplement of paper PMC6411743.
± gives the standard deviation of the averaged measurements. The list shows a part of the results.

Sequences of proteins named here, by UniProt entry; tags and fusion partners are left off. A change or cut given only in a name is not applied to a line headed by its entry.
UniProt P54136: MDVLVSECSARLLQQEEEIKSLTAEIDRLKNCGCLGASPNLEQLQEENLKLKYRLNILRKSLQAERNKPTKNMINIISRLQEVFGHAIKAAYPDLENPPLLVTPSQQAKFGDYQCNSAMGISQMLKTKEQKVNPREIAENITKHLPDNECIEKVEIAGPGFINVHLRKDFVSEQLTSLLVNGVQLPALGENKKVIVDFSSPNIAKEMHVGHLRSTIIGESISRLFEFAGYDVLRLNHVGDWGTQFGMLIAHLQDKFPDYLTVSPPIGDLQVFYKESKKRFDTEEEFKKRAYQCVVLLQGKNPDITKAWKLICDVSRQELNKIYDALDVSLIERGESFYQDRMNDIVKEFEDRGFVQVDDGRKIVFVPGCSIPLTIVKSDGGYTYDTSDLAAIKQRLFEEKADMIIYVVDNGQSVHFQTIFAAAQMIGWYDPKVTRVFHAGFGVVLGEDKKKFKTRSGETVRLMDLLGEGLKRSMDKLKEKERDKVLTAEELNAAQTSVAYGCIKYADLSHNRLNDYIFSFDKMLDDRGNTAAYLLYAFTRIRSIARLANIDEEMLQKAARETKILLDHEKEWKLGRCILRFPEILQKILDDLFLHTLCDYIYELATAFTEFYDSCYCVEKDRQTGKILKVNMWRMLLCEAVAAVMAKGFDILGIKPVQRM
UniProt P56377: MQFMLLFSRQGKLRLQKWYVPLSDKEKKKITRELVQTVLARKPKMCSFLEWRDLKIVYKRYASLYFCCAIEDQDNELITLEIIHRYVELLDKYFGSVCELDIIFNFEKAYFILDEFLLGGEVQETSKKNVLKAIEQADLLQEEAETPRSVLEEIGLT
UniProt P53384: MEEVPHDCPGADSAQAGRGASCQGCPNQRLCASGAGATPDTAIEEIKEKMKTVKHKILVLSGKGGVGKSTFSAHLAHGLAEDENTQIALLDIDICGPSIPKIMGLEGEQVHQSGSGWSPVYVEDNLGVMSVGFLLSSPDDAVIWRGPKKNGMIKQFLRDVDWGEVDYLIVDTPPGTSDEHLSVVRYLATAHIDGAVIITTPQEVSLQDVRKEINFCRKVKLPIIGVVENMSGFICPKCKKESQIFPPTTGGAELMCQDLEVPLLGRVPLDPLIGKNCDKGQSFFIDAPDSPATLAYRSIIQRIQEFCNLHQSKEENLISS
UniProt P51114, whole entry: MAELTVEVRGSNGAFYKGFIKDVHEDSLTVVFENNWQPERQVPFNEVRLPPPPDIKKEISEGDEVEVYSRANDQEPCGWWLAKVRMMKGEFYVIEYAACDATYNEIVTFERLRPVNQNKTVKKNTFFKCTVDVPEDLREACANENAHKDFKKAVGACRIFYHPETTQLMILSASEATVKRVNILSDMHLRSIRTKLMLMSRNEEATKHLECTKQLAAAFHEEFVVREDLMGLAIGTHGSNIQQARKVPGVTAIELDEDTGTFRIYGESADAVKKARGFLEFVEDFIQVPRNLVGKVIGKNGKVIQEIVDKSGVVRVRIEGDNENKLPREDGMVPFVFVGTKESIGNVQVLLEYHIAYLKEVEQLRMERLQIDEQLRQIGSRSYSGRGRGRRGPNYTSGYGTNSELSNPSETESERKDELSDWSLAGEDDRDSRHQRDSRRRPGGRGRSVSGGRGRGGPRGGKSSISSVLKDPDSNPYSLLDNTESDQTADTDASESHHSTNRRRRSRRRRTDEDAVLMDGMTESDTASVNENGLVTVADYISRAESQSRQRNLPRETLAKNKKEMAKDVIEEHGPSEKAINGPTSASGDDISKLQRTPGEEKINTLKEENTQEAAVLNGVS
UniProt P51812, whole entry: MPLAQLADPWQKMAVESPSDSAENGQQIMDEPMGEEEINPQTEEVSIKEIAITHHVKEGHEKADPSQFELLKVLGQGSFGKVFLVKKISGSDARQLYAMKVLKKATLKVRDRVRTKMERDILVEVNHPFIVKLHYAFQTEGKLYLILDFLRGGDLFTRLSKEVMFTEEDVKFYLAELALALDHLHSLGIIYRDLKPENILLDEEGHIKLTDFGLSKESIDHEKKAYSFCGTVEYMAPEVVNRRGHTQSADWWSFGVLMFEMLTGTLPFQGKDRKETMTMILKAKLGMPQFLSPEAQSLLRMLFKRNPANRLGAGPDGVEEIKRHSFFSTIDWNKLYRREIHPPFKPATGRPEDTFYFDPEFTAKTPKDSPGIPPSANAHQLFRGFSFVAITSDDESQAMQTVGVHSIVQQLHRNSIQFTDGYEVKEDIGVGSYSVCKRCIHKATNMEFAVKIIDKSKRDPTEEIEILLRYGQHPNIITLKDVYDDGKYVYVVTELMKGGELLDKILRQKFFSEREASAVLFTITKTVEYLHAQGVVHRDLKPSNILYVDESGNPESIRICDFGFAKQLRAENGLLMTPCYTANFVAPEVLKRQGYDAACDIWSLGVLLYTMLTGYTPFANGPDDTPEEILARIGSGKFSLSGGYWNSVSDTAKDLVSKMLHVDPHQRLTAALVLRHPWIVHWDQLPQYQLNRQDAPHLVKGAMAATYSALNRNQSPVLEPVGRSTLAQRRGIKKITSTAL
UniProt P98170, whole entry: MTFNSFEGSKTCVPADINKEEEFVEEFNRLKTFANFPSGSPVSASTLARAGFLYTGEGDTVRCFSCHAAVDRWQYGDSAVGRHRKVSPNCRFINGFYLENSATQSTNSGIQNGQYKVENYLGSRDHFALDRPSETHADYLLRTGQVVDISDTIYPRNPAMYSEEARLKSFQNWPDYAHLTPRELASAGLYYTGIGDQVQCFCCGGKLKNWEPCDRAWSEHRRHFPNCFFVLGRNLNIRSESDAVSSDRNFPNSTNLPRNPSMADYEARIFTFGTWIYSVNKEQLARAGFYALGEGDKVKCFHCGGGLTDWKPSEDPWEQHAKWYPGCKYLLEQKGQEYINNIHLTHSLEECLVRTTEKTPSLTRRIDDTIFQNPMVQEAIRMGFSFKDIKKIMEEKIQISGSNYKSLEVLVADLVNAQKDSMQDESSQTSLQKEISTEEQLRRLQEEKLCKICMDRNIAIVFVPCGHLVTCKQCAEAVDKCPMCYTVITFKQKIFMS
UniProt Q00325: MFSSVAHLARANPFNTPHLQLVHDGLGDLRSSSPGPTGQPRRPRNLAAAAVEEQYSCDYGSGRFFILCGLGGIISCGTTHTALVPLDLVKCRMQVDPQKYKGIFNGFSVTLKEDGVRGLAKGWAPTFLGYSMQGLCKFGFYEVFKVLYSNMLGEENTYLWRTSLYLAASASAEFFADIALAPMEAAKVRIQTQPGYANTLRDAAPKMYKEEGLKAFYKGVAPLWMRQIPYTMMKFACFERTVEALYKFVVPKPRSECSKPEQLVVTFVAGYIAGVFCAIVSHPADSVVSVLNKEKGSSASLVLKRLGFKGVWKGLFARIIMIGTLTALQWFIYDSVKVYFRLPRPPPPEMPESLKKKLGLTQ
UniProt P61011: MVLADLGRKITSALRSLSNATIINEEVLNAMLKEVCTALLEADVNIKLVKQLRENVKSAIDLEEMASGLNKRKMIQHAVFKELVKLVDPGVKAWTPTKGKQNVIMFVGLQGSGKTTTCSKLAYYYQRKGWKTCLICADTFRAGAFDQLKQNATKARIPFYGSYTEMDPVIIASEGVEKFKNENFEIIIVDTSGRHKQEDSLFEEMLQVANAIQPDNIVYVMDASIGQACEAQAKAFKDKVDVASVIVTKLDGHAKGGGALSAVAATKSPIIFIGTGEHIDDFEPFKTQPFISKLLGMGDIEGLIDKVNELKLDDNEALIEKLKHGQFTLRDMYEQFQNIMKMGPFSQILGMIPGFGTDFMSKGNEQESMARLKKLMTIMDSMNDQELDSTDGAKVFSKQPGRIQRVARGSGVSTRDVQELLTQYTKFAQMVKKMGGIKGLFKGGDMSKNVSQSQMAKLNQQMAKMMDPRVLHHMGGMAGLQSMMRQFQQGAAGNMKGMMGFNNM
UniProt P63151: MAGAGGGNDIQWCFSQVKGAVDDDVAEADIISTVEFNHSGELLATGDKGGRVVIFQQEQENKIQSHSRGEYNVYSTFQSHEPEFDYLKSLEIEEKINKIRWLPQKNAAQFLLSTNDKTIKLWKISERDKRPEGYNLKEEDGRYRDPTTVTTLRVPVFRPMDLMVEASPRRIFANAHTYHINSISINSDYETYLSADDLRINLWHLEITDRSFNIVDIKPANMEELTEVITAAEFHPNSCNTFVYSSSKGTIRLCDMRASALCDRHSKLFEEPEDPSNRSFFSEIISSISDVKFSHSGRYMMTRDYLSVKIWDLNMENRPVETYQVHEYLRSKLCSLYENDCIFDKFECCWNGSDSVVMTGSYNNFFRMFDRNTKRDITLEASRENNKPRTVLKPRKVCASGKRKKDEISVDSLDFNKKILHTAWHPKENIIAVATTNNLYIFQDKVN
UniProt P61009: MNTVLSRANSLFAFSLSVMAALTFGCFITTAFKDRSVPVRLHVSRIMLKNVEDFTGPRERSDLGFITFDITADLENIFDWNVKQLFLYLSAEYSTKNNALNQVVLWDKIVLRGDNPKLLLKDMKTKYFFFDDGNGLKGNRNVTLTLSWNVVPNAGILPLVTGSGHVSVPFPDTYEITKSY
UniProt P52888, whole entry: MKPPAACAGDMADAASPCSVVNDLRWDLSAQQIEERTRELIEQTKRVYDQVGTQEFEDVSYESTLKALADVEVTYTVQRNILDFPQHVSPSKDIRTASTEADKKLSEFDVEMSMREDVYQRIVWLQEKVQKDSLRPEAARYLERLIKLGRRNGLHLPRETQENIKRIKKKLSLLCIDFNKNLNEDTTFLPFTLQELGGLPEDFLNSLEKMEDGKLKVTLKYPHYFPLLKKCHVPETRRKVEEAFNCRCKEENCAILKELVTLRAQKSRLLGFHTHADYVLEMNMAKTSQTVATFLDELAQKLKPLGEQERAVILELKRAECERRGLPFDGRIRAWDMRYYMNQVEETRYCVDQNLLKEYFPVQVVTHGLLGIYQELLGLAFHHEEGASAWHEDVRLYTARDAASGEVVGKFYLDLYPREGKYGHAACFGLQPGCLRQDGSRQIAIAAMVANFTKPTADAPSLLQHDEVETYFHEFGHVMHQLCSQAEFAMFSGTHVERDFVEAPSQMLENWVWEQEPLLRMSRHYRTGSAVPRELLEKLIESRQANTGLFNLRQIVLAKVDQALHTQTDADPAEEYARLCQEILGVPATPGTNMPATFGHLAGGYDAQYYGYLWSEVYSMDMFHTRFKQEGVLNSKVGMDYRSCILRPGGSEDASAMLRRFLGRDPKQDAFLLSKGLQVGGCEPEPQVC
UniProt P61604, whole entry: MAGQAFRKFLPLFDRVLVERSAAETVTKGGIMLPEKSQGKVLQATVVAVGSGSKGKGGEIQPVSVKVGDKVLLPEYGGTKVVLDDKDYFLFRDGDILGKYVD
UniProt P50583: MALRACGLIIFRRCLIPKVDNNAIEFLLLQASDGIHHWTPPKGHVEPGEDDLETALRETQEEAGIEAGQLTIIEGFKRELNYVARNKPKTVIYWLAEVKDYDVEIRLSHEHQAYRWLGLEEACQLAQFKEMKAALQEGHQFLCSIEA
UniProt P62699: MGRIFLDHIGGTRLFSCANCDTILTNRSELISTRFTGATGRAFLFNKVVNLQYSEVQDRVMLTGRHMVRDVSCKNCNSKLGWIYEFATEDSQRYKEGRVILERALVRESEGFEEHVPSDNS
UniProt P55060: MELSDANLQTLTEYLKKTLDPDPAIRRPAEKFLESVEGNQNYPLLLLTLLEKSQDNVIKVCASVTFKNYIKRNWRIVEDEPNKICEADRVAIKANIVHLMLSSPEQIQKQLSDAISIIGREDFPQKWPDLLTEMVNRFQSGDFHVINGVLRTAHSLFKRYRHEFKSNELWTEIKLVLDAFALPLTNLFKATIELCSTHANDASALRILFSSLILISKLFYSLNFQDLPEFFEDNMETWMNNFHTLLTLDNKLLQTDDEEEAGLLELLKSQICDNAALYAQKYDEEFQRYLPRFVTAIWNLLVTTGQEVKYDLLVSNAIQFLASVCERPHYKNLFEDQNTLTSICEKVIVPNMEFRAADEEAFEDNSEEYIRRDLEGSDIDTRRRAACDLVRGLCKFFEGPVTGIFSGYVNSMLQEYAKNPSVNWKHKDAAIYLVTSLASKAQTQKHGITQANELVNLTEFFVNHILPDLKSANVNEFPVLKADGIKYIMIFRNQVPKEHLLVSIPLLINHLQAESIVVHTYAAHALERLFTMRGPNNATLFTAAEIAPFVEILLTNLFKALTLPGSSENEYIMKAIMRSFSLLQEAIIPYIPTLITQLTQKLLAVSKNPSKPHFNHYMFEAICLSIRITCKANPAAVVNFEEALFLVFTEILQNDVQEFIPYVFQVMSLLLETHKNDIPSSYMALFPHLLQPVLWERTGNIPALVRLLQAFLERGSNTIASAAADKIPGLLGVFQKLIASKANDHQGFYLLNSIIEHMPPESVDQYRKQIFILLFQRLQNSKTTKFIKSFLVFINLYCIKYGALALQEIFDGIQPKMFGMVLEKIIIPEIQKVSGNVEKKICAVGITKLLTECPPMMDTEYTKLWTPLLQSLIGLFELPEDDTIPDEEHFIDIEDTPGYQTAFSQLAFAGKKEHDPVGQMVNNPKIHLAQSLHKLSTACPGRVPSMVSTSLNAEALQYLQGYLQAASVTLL
UniProt P56385: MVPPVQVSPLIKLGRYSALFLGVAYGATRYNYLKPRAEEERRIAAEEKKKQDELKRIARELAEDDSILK

Compound: Nc1nc2c(ncn2[C@@H]2O[C@H](COP(=O)(O)OP(=O)(O)OP(=O)(O)O)[C@@H](O)[C@H]2O)c(=O)[nH]1 [guanosine triphosphate]
Assay: NP40-soluble protein abundance relative to vehicle (solubility fold change) (ratio); higher = more soluble protein in presence of GTP
Method in brief: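 Jurkat crude lysate prepared with a Dounce homogeniser was treated at eight concentrations spanning 0.1 to 10 mM, 10 min at room temperature then 3 min at 37 °C. Solubilisation with 0.8% NP40 and benzonase and ultracentrifugation preceded TMT labelling of the supernatant for LC-MS/MS. Fold change against the detergent-processed vehicle was determined per replicate from vsn-normalised intensities, across three independent experiments.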

Target | NP40-soluble protein abundance (concentration: 0.1mM) | NP40-soluble protein abundance (concentration: 0.5mM) | NP40-soluble protein abundance (concentration: 1mM) | NP40-soluble protein abundance (concentration: 2mM) | NP40-soluble protein abundance (concentration: 4mM) | NP40-soluble protein abundance (concentration: 6mM) | NP40-soluble protein abundance (concentration: 8mM) | NP40-soluble protein abundance (concentration: 10mM)
RARS (UniProt P54136) | 1.11 ± 0.096 | 1.17 ± 0.19 | 1.12 ± 0.19 | 1.23 ± 0.29 | 1.28 ± 0.27 | 1.26 ± 0.3 | 1.22 ± 0.25 | 1.14 ± 0.25
UniProt P61218 and related entries | 1.04 ± 0.059 | 1.08 ± 0.035 | 1.18 ± 0.046 | 1.16 ± 0.021 | 1.22 ± 0.047 | 1.21 ± 0.071 | 1.18 ± 0.13 | 1.31 ± 0.073
AP1S2 (UniProt P56377) | 0.952 ± 0.21 | 1.06 ± 0.11 | 1.05 ± 0.24 | 1.12 ± 0.25 | 1.29 ± 0.21 | 1.15 ± 0.15 | 1.16 ± 0.13 | 1.2 ± 0.026
UniProt P61160 and related entries | 1.05 ± 0.042 | 1.08 ± 0.07 | 1 ± 0.049 | 0.969 ± 0.051 | 0.939 ± 0.057 | 0.992 ± 0.058 | 0.937 ± 0.027 | 0.883 ± 0.048
UniProt P61221 | 1.03 ± 0.053 | 1.06 ± 0.075 | 0.94 ± 0.033 | 0.96 ± 0.08 | 0.948 ± 0.063 | 0.961 ± 0.058 | 0.912 ± 0.035 | 0.895 ± 0.1
UniProt P53384 and related entries | 0.935 ± 0.081 | 0.92 ± 0.081 | 0.864 ± 0.032 | 0.881 ± 0.052 | 0.842 ± 0.064 | 0.877 ± 0.065 | 0.856 ± 0.05 | 0.864 ± 0.074
FXR1 (UniProt P51114) | 1.13 ± 0.11 | 1.23 ± 0.075 | 1.31 ± 0.042 | 1.54 ± 0.07 | 1.885 ± 0.0094 | 2.02 ± 0.03 | 2.16 ± 0.091 | 2.28 ± 0.13
UniProt P51812 | 1.09 ± 0.061 | 1.09 ± 0.06 | 1.03 ± 0.079 | 1.02 ± 0.04 | 0.997 ± 0.013 | 0.977 ± 0.019 | 0.97 ± 0.025 | 0.929 ± 0.044
RPL10A (UniProt P62906) | 0.9486 ± 0.0092 | 0.959 ± 0.017 | 0.97 ± 0.022 | 0.828 ± 0.059 | 0.682 ± 0.079 | 0.642 ± 0.075 | 0.521 ± 0.069 | 0.569 ± 0.078
UniProt P62753 | 0.956 ± 0.058 | 1.01 ± 0.097 | 1.05 ± 0.18 | 0.982 ± 0.2 | 0.888 ± 0.28 | 0.835 ± 0.25 | 0.746 ± 0.23 | 0.816 ± 0.28
XIAP (UniProt P98170) | 1.05 ± 0.19 | 1 ± 0.1 | 1.06 ± 0.13 | 1.06 ± 0.18 | 1.07 ± 0.18 | 1.04 ± 0.14 | 0.982 ± 0.1 | 0.975 ± 0.079
UniProt Q00325 and related entries | 1.03 ± 0.034 | 1.05 ± 0.11 | 0.886 ± 0.03 | 0.944 ± 0.13 | 0.939 ± 0.08 | 0.924 ± 0.089 | 0.858 ± 0.032 | 0.861 ± 0.074
SRP54 (UniProt P61011) | 1.01 ± 0.021 | 1.015 ± 0.0062 | 0.981 ± 0.012 | 1.003 ± 0.0096 | 1.03 ± 0.013 | 1.03 ± 0.018 | 1.03 ± 0.024 | 1.01 ± 0.023
UniProt P63151 and related entries | 0.983 ± 0.037 | 1.02 ± 0.071 | 0.934 ± 0.068 | 0.931 ± 0.083 | 0.955 ± 0.079 | 0.887 ± 0.071 | 0.92 ± 0.016 | 0.8766 ± 0.0055
UniProt P61009 | 0.969 ± 0.031 | 0.937 ± 0.067 | 0.961 ± 0.017 | 0.922 ± 0.058 | 0.9 ± 0.052 | 0.885 ± 0.067 | 0.844 ± 0.036 | 0.87 ± 0.025
MAT1A (UniProt Q00266) | 1.07 ± 0.034 | 1.09 ± 0.049 | 1 ± 0.13 | 1.05 ± 0.13 | 1.01 ± 0.13 | 0.963 ± 0.075 | 0.981 ± 0.063 | 0.937 ± 0.1
THOP1 (UniProt P52888) | 1.02 ± 0.053 | 1.02 ± 0.045 | 0.923 ± 0.033 | 0.912 ± 0.058 | 0.898 ± 0.041 | 0.889 ± 0.033 | 0.854 ± 0.023 | 0.842 ± 0.083
UniProt P61604 and related entries | 0.873 ± 0.034 | 0.864 ± 0.074 | 0.921 ± 0.044 | 0.873 ± 0.095 | 0.869 ± 0.081 | 0.88 ± 0.088 | 0.88 ± 0.068 | 0.909 ± 0.058
MRPS25 (UniProt P82663) | 1.1 ± 0.052 | 1.14 ± 0.11 | 1.2 ± 0.15 | 1.28 ± 0.23 | 1.28 ± 0.22 | 1.23 ± 0.23 | 1.18 ± 0.22 | 1.1 ± 0.17
HNRNPH2 (UniProt P55795) | 1.01 ± 0.026 | 1.02 ± 0.032 | 0.937 ± 0.028 | 0.966 ± 0.017 | 0.938 ± 0.024 | 0.957 ± 0.02 | 0.954 ± 0.018 | 0.926 ± 0.048
CPT1A (UniProt P50416) | 1.08 ± 0.061 | 1.08 ± 0.083 | 1.01 ± 0.086 | 1.04 ± 0.13 | 1.06 ± 0.1 | 1.05 ± 0.13 | 1.03 ± 0.055 | 1.02 ± 0.098
UniProt P62701 | 1 ± 0.095 | 1.08 ± 0.16 | 1.08 ± 0.25 | 1.03 ± 0.28 | 0.925 ± 0.31 | 0.89 ± 0.31 | 0.828 ± 0.28 | 0.853 ± 0.31
NUDT2 (UniProt P50583) | 0.93 ± 0.17 | 0.902 ± 0.14 | 0.884 ± 0.15 | 0.877 ± 0.15 | 1.8 ± 0.49 | 1.24 ± 0.23 | 1.48 ± 0.34 | 1.16 ± 0.26
YPEL5 (UniProt P62699) | 1.35 ± 0.14 | 1.25 ± 0.03 | 1.332 ± 0.0098 | 1.54 ± 0.029 | 1.47 ± 0.044 | 1.39 ± 0.11 | 1.42 ± 0.079 | 1.27 ± 0.032
UniProt P55060 and related entries | 1.016 ± 0.0067 | 0.995 ± 0.025 | 0.965 ± 0.014 | 0.94 ± 0.037 | 0.932 ± 0.033 | 0.917 ± 0.043 | 0.923 ± 0.039 | 0.9 ± 0.036
PLK1 (UniProt P53350) | 1.05 ± 0.044 | 1.01 ± 0.075 | 0.985 ± 0.048 | 1.01 ± 0.07 | 1.05 ± 0.074 | 0.989 ± 0.047 | 1.07 ± 0.076 | 1.08 ± 0.051
UniProt P56385 | 0.902 ± 0.051 | 0.987 ± 0.086 | 1.04 ± 0.059 | 1.01 ± 0.12 | 0.965 ± 0.05 | 0.994 ± 0.097 | 1.05 ± 0.078 | 1.07 ± 0.074

Laid out differently: entries from further up.
Target,NP40-soluble protein abundance (concentration: 0.1mM),NP40-soluble protein abundance (concentration: 0.5mM),NP40-soluble protein abundance (concentration: 1mM),NP40-soluble protein abundance (concentration: 2mM),NP40-soluble protein abundance (concentration: 4mM),NP40-soluble protein abundance (concentration: 6mM),NP40-soluble protein abundance (concentration: 8mM),NP40-soluble protein abundance (concentration: 10mM)
NUDT2 (UniProt P50583),0.93 ± 0.17,0.902 ± 0.14,0.884 ± 0.15,0.877 ± 0.15,1.8 ± 0.49,1.24 ± 0.23,1.48 ± 0.34,1.16 ± 0.26
YPEL5 (UniProt P62699),1.35 ± 0.14,1.25 ± 0.03,1.332 ± 0.0098,1.54 ± 0.029,1.47 ± 0.044,1.39 ± 0.11,1.42 ± 0.079,1.27 ± 0.032
